# Results taken from PubChem BioAssay AID248 (DTP/NCI, 2004).
# The list shows only some results of the screen, not a fair sample: it is rich in T/C values a quarter to a half above the control, in often repeated tests (any T/C) and in doses without a T/C. Further doses and runs are listed elsewhere. T/C: endpoint of the treated group in % of that of the vehicle group. Some entries give survivors of the animals treated and no T/C: the source files T/C as zero there, which appears to mark a toxic dose or a test without result, not a measured value. Some survivor counts are full or nearly so, which does not show that the dose was tolerated: the source hardly ever lists a survival T/C far under the control, and the zero likely stands for such cases as well. Survivors were counted at the toxicity check, usually on the fifth day, unless a day is given; later deaths do not show. Schedules are NCI's codes, read here as Q, the interval in days (D) or hours (H), X, the number of doses. Some entries hold several experiments; the values are given in rising order. Counts like (3×) say how often a value occurs here. Some schedule codes hold Z or #, which are not explained here. Where survival is the endpoint, this PubChem deposit counts one and a half times the control or more as active, and values a quarter to a half above the control carry no call in these data; other NCI protocols may use other cut-offs.
# Test system: L1210 leukemia ip in BDF1 mice, survival T/C
# Assay: NCI In Vivo Anticancer Drug Screen. Data for tumor model L1210 Leukemia (intraperitoneal) in B6D2F1 (BDF1) mice
# Settings: T/C endpoint: mean survival time, higher T/C = longer survival
# [1] = dose: 12.5 mg/kg/injection, schedule: Q01DX010 (ip), vehicle: water
# [2] = dose: 32.0 mg/kg/injection, schedule: Q01DX001 (oral), vehicle: saline
smiles,measurement,setting,value
S=P(N1CC1)(N1CC1)N1CC1,survivor count,"dose: 0.5 mg/kg/injection, schedule: Q04DX002 (ip), vehicle: saline",1 of 1
same,T/C,"dose: 1.0 mg/kg/injection, schedule: Q01DX009 (ip), vehicle: saline",140 % of control
same,T/C,"dose: 1.5 mg/kg/injection, schedule: Q01DX009 (ip), vehicle: saline, evaluated on day 30","97, 110, 118, 120 % of control"
same,T/C,"dose: 1.5 mg/kg/injection, schedule: Q01DX009 (ip), vehicle: saline, evaluated on day 60",110 % of control
same,T/C,"dose: 1.57 mg/kg/injection, schedule: Q01DX010 (ip), vehicle: water","110 (2×), 122, 127 % of control"
same,T/C,"dose: 2.0 mg/kg/injection, schedule: Q01DX009 (ip), vehicle: saline",136 and 147 % of control
same,T/C,"dose: 3.0 mg/kg/injection, schedule: Q01DX009 (ip), vehicle: saline, evaluated on day 30","135, 137, 147, 148 % of control"
same,T/C,"dose: 3.0 mg/kg/injection, schedule: Q01DX009 (ip), vehicle: saline, evaluated on day 60",137 % of control
same,T/C,"dose: 3.13 mg/kg/injection, schedule: Q01DX009 (ip), vehicle: saline",135 and 141 % of control
same,T/C,"dose: 3.13 mg/kg/injection, schedule: Q01DX010 (ip), vehicle: water","129, 153, 166 % of control (2×)"
same,T/C,"dose: 4.0 mg/kg/injection, schedule: Q04DX002 (ip), vehicle: saline","115, 116, 117, 118 % of control"
same,T/C,"dose: 4.0 mg/kg/injection, schedule: Q04DX003 (ip), vehicle: saline",138 % of control
same,T/C,"dose: 4.8 mg/kg/injection, schedule: Q01DX Z (ip), vehicle: carboxymethylcellulose (CMC)",138 % of control
same,T/C,"dose: 6.0 mg/kg/injection, schedule: Q01DX009 (ip), vehicle: saline, evaluated on day 30","131, 150, 164, 201 % of control"
same,T/C,"dose: 6.0 mg/kg/injection, schedule: Q01DX009 (ip), vehicle: saline, evaluated on day 60",189 % of control
same,T/C,"dose: 6.0 mg/kg/injection, schedule: Q01DX010 (oral), vehicle: carboxymethylcellulose (CMC)",130 % of control
same,T/C,"dose: 6.0 mg/kg/injection, schedule: Q01DX Z (ip), vehicle: carboxymethylcellulose (CMC)",136 % of control
same,T/C,"dose: 6.25 mg/kg/injection, schedule: Q01DX009 (ip), vehicle: saline",147 % of control
same,T/C,"dose: 6.25 mg/kg/injection, schedule: Q01DX010 (ip), vehicle: water","100, 117, 127, 140 % of control"
same,T/C,"dose: 8.0 mg/kg/injection, schedule: Q01DX001 (ip), vehicle: saline, evaluated on day 30",124 and 130 % of control
same,T/C,"dose: 8.0 mg/kg/injection, schedule: Q01DX001 (ip), vehicle: saline, evaluated on day 60",107 % of control
same,T/C,"dose: 8.0 mg/kg/injection, schedule: Q01DX001 (ip), vehicle: saline, run until all animals had died",118 % of control
same,T/C,"dose: 8.0 mg/kg/injection, schedule: Q01DX009 (ip), vehicle: saline",146 % of control
same,T/C,"dose: 8.0 mg/kg/injection, schedule: Q04DX002 (ip), vehicle: saline","134, 136, 141, 148 % of control"
same,T/C,"dose: 10.0 mg/kg/injection, schedule: Q01DX001 (ip), vehicle: saline",134 % of control
same,survivor count,"dose: 10.0 mg/kg/injection, schedule: Q01DX Z (ip), vehicle: saline",6 of 6
same,T/C,"dose: 11.0 mg/kg/injection, schedule: Q01DX001 (ip), vehicle: saline",127 and 135 % of control
same,T/C,"dose: 12.0 mg/kg/injection, schedule: Q01DX001 (ip), vehicle: saline, evaluated on day 60",144 % of control
same,T/C,"dose: 12.0 mg/kg/injection, schedule: Q01DX001 (ip), vehicle: saline, run until all animals had died",135 % of control
same,T/C,[1],96 % of control
same,survivor count,[1],6 of 6
same,T/C,"dose: 13.3 mg/kg/injection, schedule: Q01DX001 (ip), vehicle: saline",144 % of control
same,T/C,"dose: 14.0 mg/kg/injection, schedule: Q01DX001 (ip), vehicle: saline",126 % of control
same,T/C,"dose: 16.0 mg/kg/injection, schedule: Q01DX001 (oral), vehicle: saline",136 % of control
same,survivor count,"dose: 16.0 mg/kg/injection, schedule: Q01DX009 (ip), vehicle: saline",9 of 10 and 6 of 6
same,T/C,"dose: 16.0 mg/kg/injection, schedule: Q04DX002 (ip), vehicle: saline","173, 175, 184, 205 % of control"
same,T/C,"dose: 16.0 mg/kg/injection, schedule: Q04DX003 (ip), vehicle: saline, evaluated on day 30",138 % of control
same,T/C,"dose: 16.0 mg/kg/injection, schedule: Q04DX003 (ip), vehicle: saline, evaluated on day 60",138 % of control
same,survivor count,"dose: 24.0 mg/kg/injection, schedule: Q01DX001 (ip), vehicle: saline",6 of 10
same,survivor count,"dose: 24.0 mg/kg/injection, schedule: Q01DX009 (ip), vehicle: saline",6 of 10
same,survivor count,"dose: 25.0 mg/kg/injection, schedule: Q01DX010 (ip), vehicle: water","0 of 6, 2 of 6, 3 of 6, 5 of 6"
same,survivor count,"dose: 32.0 mg/kg/injection, schedule: Q01DX001 (ip), vehicle: saline","1 of 6, 2 of 10, 3 of 6, 4 of 6, 7 of 10"
same,T/C,[2],132 % of control
same,survivor count,[2],6 of 10
same,survivor count,"dose: 32.0 mg/kg/injection, schedule: Q01DX009 (ip), vehicle: saline","6 of 10, 4 of 6, 10 of 10"
same,survivor count,"dose: 32.0 mg/kg/injection, schedule: Q04DX002 (ip), vehicle: saline",3 of 3
same,survivor count,"dose: 32.0 mg/kg/injection, schedule: Q04DX003 (ip), vehicle: saline","5 of 6, 9 of 10, 10 of 10"
same,survivor count,"dose: 48.0 mg/kg/injection, schedule: Q01DX001 (ip), vehicle: saline","1 of 6, 2 of 10, 5 of 6"
same,survivor count,"dose: 48.0 mg/kg/injection, schedule: Q01DX010 (oral), vehicle: carboxymethylcellulose (CMC)",5 of 6
same,survivor count,"dose: 50.0 mg/kg/injection, schedule: Q01DX001 (ip), vehicle: saline",6 of 6
same,survivor count,"dose: 64.0 mg/kg/injection, schedule: Q01DX001 (ip), vehicle: saline",2 of 10 (2×) and 4 of 6
same,survivor count,"dose: 64.0 mg/kg/injection, schedule: Q01DX001 (oral), vehicle: saline",1 of 10
same,survivor count,"dose: 64.0 mg/kg/injection, schedule: Q01DX009 (ip), vehicle: saline","6 of 10, 5 of 6, 10 of 10"
